Results from publication PMC3735939, “The low levels of eicosapentaenoic acid in rat brain phospholipids are maintained via multiple redundant mechanisms” (Journal of Lipid Research, 2013).

Assay: Brain total phospholipid and phospholipid class FA concentrations (GC-FID)
Type: in vivo, rat
Details: for percent of total ChoGpl FAs: brain ChoGpl; for percent of total EtnGpl FAs: brain EtnGpl; for percent of total PtdSer FAs: brain PtdSer
Text: Total lipids from one brain hemisphere and from plasma were extracted by the method of Folch, Lees, and Sloane Stanley ([39]). Isolation of various neutral lipid and phospholipid classes from the total lipid extract was previously described by Chen, Liu, and Bazinet ([6]).
Brain FA concentrations from total and phospholipid classes were quantified as described by Chen, Liu, and Bazinet ([6]).

Compound	Brain FA concentration in ChoGpl (MEP)	Brain FA concentration in EtnGpl (MEP)	Brain FA concentration in PtdIns (MEP)	Brain FA concentration in PtdSer (MEP)	Brain Total PL FA concentration (MEP 10 mg/kg)	Brain FA concentration in EtnGpl (Vehicle)	Brain FA concentration in PtdIns (Vehicle)	Brain FA concentration in PtdSer (Vehicle)	Brain Total PL FA concentration (Vehicle)	percent of total FAs in brain phospholipids [%]	Brain FA concentration in ChoGpl (Vehicle)	Brain Total PL FA concentration (MEP 10 mg/kg, listed as 20:5n-3) [nmol/g brain]	Brain Total PL FA concentration (Vehicle, listed as 20:5n-3) [nmol/g brain]	percent of total ChoGpl FAs [%]	percent of total EtnGpl FAs [%]	percent of total PtdIns FAs (brain PtdIns) [%]	percent of total PtdSer FAs [%]
CCCCCCCCCCCCCCCCCC(=O)O [18:0, stearate]	6,403 ± 150 nmol/g brain	6,492 ± 213 nmol/g brain	1,811 ± 138 nmol/g brain	6,104 ± 414 nmol/g brain	21,349 ± 561 nmol/g brain	6,590 ± 257 nmol/g brain	1,933 ± 355 nmol/g brain	6,441 ± 704 nmol/g brain	22,241 ± 2,610 nmol/g brain	22							
CCCCCC/C=C\CCCCCCCC(=O)O [16:1n-7, palmitoleate]	145 ± 11 nmol/g brain	143 ± 45 nmol/g brain	11 ± 1.3 nmol/g brain	5.8 ± 1.1 nmol/g brain	327 ± 48 nmol/g brain	148 ± 62 nmol/g brain	12 ± 3 nmol/g brain	6.0 ± 1.2 nmol/g brain	376 ± 65 nmol/g brain		146 ± 14 nmol/g brain						
CC/C=C\C/C=C\C/C=C\C/C=C\C/C=C\CCCCCC(=O)O [n-3 DPA, n-3 docosapentaenoic acid]	3.5 ± 0.37 nmol/g brain	8.7 ± 1 nmol/g brain	0.69 ± 0.13 nmol/g brain	5.7 ± 0.5 nmol/g brain	16 ± 2 nmol/g brain	8.6 ± 0.73 nmol/g brain	0.81 ± 0.27 nmol/g brain	5.8 ± 0.84 nmol/g brain	17 ± 3 nmol/g brain		3.7 ± 0.65 nmol/g brain						
CC/C=C\C/C=C\C/C=C\CCCCCCCC(=O)O [18:3n-3, α-linolenate]	10 ± 0.83 nmol/g brain	13 ± 1.5 nmol/g brain	1.2 ± 0.15 nmol/g brain	2.7 ± 0.46 nmol/g brain	24 ± 2.7 nmol/g brain	14 ± 3.1 nmol/g brain	1.2 ± 0.32 nmol/g brain	2.9 ± 0.46 nmol/g brain	27 ± 6.5 nmol/g brain		11 ± 1.3 nmol/g brain						
CC/C=C\C/C=C\C/C=C\C/C=C\C/C=C\CCCC(=O)O [EPA, eicosapentaenoic acid]	60 ± 8.7 nmol/g brain	65 ± 11 nmol/g brain	24 ± 6.2 nmol/g brain	50 ± 9.4 nmol/g brain	202 ± 8.6 nmol/g brain	74 ± 16 nmol/g brain	26 ± 12 nmol/g brain	57 ± 17 nmol/g brain	225 ± 12 nmol/g brain	0.2	61 ± 9 nmol/g brain	202 ± 29	225 ± 37	0.1	0.2	0.5	0.4
CC/C=C\C/C=C\C/C=C\C/C=C\C/C=C\C/C=C\CCC(=O)O [DHA, docosahexaenoic acid]	1,387 ± 85 nmol/g brain	5,448 ± 356 nmol/g brain	185 ± 40 nmol/g brain	2,331 ± 105 nmol/g brain	8,729 ± 380 nmol/g brain	5,812 ± 485 nmol/g brain	196 ± 49 nmol/g brain	2,357 ± 161 nmol/g brain	8,789 ± 830 nmol/g brain	9	1,351 ± 100 nmol/g brain				17		17
CCCCC/C=C\C/C=C\CCCCCCCC(=O)O [18:2n-6, linoleate]	452 ± 36 nmol/g brain	166 ± 11 nmol/g brain	41 ± 5.2 nmol/g brain	24 ± 5.4 nmol/g brain	743 ± 52 nmol/g brain	182 ± 10 nmol/g brain	44 ± 10 nmol/g brain	26 ± 6 nmol/g brain	770 ± 49 nmol/g brain		464 ± 32 nmol/g brain						
CCCCCCCCCCCCCCCC(=O)O [Palmitate, [1-14C]palmitate]	23,762 ± 492 nmol/g brain	2,786 ± 107 nmol/g brain	746 ± 67 nmol/g brain	333 ± 23 nmol/g brain	23,932 ± 725 nmol/g brain	2,903 ± 242 nmol/g brain	807 ± 199 nmol/g brain	367 ± 89 nmol/g brain	24,559 ± 2030 nmol/g brain	25	23,818 ± 1,531 nmol/g brain			48			
CCCCCCCC/C=C\CCCCCCCC(=O)O [18:1n-9, oleate]	10,705 ± 373 nmol/g brain	8,235 ± 507 nmol/g brain	813 ± 72 nmol/g brain	2,899 ± 278 nmol/g brain	20,370 ± 960 nmol/g brain	8,833 ± 973 nmol/g brain	864 ± 199 nmol/g brain	3,165 ± 528 nmol/g brain	21,384 ± 3,400 nmol/g brain	21	10,893 ± 1,098 nmol/g brain						
CCCCC/C=C\C/C=C\C/C=C\C/C=C\CCCC(=O)O [ARA, arachidonic acid]	2,255 ± 70 nmol/g brain	4,089 ± 154 nmol/g brain	1,279 ± 126 nmol/g brain	411 ± 32 nmol/g brain	7,797 ± 318 nmol/g brain	4,302 ± 322 nmol/g brain	1,330 ± 226 nmol/g brain	449 ± 46 nmol/g brain	7,921 ± 791 nmol/g brain	8	2,242 ± 169 nmol/g brain						
